Assay [1] addresses T1, GST-Dorfin (aa 834–840; WT) (mouse) (UniProt P50636).
T1 sequence: VAVQTEI
Kind of assay: pull-down; GST-Dorfin (aa 834–840) used to bring down proteins expressed in HEK293T cells, followed by immunoblotting; only the target purified.

By UniProt entry, the sequences of proteins in these tests, tags left out. Where a name states a change or a piece, a line headed by the entry shows the natural chain unless it says otherwise.
UniProt P50636: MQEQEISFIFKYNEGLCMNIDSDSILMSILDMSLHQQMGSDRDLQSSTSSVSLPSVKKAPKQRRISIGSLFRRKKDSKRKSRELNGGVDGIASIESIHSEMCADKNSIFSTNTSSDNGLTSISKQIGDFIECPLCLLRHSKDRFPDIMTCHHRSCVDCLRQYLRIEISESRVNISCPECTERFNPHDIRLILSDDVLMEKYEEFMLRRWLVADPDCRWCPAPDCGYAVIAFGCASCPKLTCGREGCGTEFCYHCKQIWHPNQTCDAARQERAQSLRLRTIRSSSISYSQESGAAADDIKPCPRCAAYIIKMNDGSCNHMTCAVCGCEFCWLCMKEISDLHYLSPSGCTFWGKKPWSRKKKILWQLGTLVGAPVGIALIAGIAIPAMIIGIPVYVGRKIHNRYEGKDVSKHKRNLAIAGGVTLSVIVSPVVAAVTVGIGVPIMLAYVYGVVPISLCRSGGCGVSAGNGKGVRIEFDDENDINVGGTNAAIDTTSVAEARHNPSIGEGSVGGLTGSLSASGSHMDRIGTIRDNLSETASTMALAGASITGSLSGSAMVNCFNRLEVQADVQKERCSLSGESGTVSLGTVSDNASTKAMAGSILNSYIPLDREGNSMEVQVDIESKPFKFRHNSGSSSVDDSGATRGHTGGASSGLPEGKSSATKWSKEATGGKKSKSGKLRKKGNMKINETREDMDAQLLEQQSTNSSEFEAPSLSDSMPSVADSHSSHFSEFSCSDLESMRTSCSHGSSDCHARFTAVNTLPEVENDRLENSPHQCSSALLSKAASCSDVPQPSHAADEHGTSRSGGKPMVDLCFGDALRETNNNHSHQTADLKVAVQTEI
UniProt Q62696: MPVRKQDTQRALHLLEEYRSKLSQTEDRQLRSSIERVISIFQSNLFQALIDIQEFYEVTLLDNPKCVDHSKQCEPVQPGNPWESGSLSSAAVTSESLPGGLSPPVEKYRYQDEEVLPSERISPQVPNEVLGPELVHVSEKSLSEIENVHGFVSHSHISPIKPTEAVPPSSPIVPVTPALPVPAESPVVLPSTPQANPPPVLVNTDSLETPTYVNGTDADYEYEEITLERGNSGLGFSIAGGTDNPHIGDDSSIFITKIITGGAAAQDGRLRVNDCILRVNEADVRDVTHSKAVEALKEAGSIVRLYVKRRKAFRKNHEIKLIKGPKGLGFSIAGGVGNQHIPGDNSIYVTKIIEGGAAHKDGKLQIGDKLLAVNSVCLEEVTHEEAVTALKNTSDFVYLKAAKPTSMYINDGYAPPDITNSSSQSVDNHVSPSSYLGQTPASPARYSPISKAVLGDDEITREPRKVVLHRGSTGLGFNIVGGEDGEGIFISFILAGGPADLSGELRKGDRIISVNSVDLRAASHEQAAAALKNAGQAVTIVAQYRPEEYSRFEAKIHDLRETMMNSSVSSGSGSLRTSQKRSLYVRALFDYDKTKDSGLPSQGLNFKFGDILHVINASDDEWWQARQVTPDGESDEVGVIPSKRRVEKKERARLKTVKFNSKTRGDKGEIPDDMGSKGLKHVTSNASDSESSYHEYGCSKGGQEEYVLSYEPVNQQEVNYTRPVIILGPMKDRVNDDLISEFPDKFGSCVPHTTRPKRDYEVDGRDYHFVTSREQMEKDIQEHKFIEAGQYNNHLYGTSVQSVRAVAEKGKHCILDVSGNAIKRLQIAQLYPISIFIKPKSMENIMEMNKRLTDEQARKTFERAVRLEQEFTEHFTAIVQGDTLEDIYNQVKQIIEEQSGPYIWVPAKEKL

Assay [2] addresses T2, Dorfin (aa 834–840; wild type) in pBHA (mouse) (UniProt P50636).
T2 sequence: VAVQTEI
The assay is described as follows: two-hybrid; Dorfin aa 834–840 (WT or I840A) in pBHA (bait vector), PDZ domains in pGAD10 (prey vector); β-galactosidase and HIS3 activity.

These are yes or no findings as the source states them, for the method shown. For some assays here: In cells and extracts the contact can be indirect. Some binding calls cover weakened binding; strength is not graded here. For some assays here: Tags and fused reporters may be left off the sequences shown.

This note sets out measurements from publication PMC4639748.

Take “EGFP-SAP97 (full length) (from UniProt Q62696 1-911)”: in assay [1], the binding result is on record as “binds”.

B1: PDZ domain of Shank1 in pGAD10 (domain or fragment, UniProt Q9WV48 663-757)
chain: TVLLQKKDSEGFGFVLRGAKAQTPIEEFTPTPAFPALQYLESVDEGGVAWRAGLRMGDFLIEVNGQNVVKVGHRQVVNMIRQGGNTLMVKVVMVT
Take B1: the binding entry in assay [2] was “no binding”.
